Results from paper PMC3663086.
These are yes or no findings as the source states them, for the method shown. Binding seen in cells or lysates may run through a third protein. Some binding calls cover weakened binding; strength is not graded here.

By UniProt entry, the sequences of proteins in these tests, tags left out.
UniProt P03372: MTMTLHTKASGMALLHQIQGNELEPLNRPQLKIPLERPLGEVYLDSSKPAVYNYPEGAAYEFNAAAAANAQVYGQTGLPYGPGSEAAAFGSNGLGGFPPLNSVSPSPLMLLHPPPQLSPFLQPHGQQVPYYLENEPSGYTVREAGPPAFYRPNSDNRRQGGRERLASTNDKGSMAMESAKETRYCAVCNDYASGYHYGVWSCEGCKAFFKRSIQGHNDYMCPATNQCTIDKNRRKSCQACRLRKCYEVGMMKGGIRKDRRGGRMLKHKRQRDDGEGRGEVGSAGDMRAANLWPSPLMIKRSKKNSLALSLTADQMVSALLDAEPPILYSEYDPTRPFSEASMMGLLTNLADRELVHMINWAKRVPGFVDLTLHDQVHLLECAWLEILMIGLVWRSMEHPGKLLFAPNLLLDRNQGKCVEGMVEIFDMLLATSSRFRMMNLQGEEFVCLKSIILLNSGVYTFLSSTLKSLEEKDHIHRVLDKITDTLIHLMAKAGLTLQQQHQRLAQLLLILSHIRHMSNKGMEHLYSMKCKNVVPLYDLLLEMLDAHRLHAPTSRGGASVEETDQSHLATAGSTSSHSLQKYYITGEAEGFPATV

Molecular target: T1, forkhead transcription factor FOXM1 (human (endogenous in human breast cell lines)) (UniProt Q08050)
T1 sequence: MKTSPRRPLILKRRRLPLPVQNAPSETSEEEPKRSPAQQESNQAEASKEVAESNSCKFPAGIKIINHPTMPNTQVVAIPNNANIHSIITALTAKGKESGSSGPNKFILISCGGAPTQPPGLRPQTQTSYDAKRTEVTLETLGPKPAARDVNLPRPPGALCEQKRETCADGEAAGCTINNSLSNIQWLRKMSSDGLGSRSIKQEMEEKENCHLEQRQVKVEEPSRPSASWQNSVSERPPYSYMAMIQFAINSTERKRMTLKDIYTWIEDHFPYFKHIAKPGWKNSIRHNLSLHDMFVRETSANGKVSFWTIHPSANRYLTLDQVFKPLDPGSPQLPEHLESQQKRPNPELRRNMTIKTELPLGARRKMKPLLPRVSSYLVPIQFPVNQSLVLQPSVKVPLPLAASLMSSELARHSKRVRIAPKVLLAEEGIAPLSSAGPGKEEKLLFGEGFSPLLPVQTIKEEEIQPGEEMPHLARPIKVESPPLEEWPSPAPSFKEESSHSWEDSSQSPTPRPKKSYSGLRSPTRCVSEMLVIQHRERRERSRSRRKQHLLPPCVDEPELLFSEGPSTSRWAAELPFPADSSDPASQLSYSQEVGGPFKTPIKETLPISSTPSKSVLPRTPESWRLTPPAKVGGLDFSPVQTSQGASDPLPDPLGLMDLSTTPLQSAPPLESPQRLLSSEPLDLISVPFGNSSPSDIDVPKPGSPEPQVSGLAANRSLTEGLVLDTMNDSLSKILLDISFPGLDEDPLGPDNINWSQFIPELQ
Assay: co-IP; nuclear co-immunoprecipitation kit (Active Motif); pull-down with anti-FOXM1 (Santa Cruz sc-502); low or high immunoprecipitation buffers with 1X protease inhibitor cocktail and 1 mM DTT; detection by western blot

binding: binds
Substance: estrogen receptor alpha (from UniProt P03372 1-595)
